Results are given in words; binding and its absence hold for the method and conditions named. In cells and extracts the contact can be indirect. Some entries that bind do so weakly or less than the wild type.
How the values were obtained:
Test in all cases: split reporter
CYP1A1 (human) = biological target: T1, CYP1A1 (human) (UniProt P04798)
T1 sequence: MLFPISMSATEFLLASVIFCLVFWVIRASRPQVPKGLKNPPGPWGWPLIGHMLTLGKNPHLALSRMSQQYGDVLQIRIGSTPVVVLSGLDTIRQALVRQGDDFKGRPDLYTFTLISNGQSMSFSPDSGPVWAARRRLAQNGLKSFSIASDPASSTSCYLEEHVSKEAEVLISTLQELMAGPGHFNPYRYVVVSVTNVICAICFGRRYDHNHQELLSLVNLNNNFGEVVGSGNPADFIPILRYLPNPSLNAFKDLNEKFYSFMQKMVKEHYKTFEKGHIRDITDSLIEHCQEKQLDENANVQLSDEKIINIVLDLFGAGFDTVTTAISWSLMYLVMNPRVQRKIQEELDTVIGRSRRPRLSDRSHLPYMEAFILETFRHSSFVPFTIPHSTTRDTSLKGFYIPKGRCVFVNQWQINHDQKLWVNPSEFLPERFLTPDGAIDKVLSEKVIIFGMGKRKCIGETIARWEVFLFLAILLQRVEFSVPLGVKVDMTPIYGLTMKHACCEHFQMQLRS

The chains behind the UniProt entries cited, without tags or fusion partners.
UniProt P11802: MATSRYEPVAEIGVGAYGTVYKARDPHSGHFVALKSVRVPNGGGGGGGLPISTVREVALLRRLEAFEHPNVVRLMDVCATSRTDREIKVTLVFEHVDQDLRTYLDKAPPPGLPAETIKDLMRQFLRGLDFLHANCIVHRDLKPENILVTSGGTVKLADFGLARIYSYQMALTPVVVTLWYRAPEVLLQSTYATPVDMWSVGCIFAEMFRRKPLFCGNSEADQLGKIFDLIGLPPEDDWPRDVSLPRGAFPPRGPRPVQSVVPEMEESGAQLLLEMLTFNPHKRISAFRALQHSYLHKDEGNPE
UniProt Q9BVL2: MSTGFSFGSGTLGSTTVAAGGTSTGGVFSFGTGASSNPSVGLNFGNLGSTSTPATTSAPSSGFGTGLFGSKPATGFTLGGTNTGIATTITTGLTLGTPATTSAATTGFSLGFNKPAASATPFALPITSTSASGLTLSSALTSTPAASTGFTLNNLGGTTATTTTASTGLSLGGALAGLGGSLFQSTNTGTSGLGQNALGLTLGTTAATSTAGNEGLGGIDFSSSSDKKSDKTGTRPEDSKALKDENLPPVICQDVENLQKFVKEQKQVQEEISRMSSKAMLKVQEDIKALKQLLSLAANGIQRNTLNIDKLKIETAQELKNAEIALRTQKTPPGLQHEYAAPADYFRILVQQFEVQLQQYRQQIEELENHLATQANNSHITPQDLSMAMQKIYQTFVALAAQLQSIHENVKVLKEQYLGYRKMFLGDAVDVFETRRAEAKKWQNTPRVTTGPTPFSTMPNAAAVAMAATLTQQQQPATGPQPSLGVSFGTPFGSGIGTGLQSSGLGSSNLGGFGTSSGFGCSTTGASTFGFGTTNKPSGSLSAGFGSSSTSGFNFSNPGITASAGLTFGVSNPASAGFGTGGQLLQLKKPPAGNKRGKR
UniProt P00167: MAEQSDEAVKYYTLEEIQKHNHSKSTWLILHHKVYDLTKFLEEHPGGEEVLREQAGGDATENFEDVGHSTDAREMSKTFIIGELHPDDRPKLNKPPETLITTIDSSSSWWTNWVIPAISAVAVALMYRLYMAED
UniProt P30281: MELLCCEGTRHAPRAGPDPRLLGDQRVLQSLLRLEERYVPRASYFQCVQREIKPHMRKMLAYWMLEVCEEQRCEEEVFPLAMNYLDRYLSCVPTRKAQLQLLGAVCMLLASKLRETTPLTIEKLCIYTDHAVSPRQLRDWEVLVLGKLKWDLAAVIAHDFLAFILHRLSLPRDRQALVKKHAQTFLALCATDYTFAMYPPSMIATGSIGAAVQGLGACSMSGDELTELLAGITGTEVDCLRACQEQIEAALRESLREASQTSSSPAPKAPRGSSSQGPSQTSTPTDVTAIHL
UniProt P37198: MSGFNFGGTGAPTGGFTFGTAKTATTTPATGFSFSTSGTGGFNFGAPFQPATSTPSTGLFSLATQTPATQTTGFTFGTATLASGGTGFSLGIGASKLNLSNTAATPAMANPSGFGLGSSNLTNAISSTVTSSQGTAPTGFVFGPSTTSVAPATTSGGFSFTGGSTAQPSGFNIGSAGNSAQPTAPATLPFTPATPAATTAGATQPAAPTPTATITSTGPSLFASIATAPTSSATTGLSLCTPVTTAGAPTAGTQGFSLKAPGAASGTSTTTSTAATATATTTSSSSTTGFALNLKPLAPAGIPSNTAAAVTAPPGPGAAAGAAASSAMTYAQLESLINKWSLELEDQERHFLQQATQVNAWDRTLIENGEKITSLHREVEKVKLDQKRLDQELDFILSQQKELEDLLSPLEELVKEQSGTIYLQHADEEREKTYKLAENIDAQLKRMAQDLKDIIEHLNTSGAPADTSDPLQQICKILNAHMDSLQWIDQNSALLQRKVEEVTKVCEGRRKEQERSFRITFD

[1] = biological target: cyclin-dependent kinase 4 (CDK4) (human) (UniProt P11802)
[2] = biological target: nucleoporin like 1 (NUPL1) (human) (UniProt Q9BVL2)

**Q.** Which binding (CYP1A1 (human)) does the source give for CYB5A (from UniProt P00167 1-134) here?
**A.** The binding was “binds”.

**Q.** “cyclin D3 (CCND3) (from UniProt P30281 1-292)” was tested. Which binding [1] did it give?
**A.** The binding was “binds”.

**Q.** With “nucleoporin 62kDa (NUP62) (from UniProt P37198 1-522)” as the substance, how does the binding [2] read?
**A.** Its binding is “binds”.

From article doi:10.1101/770669
